Our source for the T/C and survivor count values is PubChem BioAssay AID330 (DTP/NCI, 2004).

For this test, the system named is P388 leukemia ip, CD2F1 mice, survival T/C. The test can be described thus: NCI In Vivo Anticancer Drug Screen. Data for tumor model P388 Leukemia (intraperitoneal) in CD2F1 (CDF1) mice. The note with it: T/C endpoint: median survival time, higher T/C = longer survival.
[1] abbreviates: dose: 200.0 mg/kg/injection, schedule: Q01DX005 (ip), vehicle: saline with Tween-80.
The mark [2] stands for this setting: dose: 50.0 mg/kg/injection, schedule: Q01DX005 (ip), vehicle: Klucel (hydroxypropylcellulose) (HPC).
The mark [3] stands for this setting: dose: 100.0 mg/kg/injection, schedule: Q01DX005 (ip), vehicle: Klucel (hydroxypropylcellulose) (HPC).
Setting [4] is: dose: 200.0 mg/kg/injection, schedule: Q01DX005 (ip), vehicle: Klucel (hydroxypropylcellulose) (HPC).
The mark [5] stands for this setting: dose: 100.0 mg/kg/injection, schedule: Q01DX009 (ip), vehicle: saline.
[6] abbreviates: dose: 200.0 mg/kg/injection, schedule: Q01DX005 (ip), vehicle: saline.
Where [7] appears, read: dose: 200.0 mg/kg/injection, schedule: Q01DX009 (ip), vehicle: saline with Tween-80.
[8] abbreviates: dose: 200.0 mg/kg/injection, schedule: Q01DX009 (ip), vehicle: saline.

The list does not hold the whole screen: it is rich in T/C values a quarter to a half above the control, in often repeated tests (any T/C) and in doses without a T/C. Further doses and runs are listed elsewhere. T/C: endpoint of the treated group in % of that of the vehicle group. Some doses have a count of surviving animals in place of a T/C: the source holds a T/C of zero for them, seemingly a mark for toxic or unscored doses. Some survivor counts are full or nearly so, which does not show that the dose was tolerated: survival well below the control is almost never listed, so the zero probably covers shortened survival too. Counts of survivors are from the toxicity check (mostly the fifth day) where no day follows; animals may have died later. Schedules are NCI's codes, read here as Q, the interval in days (D) or hours (H), X, the number of doses. Some structures stand for samples that the source files as different forms (salt, stereo form or complex); doses refer to the form tested. Some doses were run more than once; the values are given in rising order. Where survival is the endpoint, the PubChem record calls one and a half times the control and up active, and a quarter to a half above the control has no call in these data; cut-offs in other NCI protocols can differ. Counts like (3×) stand for listed records that agree. Some T/C values carry the count of animals alive at the toxicity check (mostly the fifth day); where none is given, no animal had died by that day.

For the molecule `OCC1OC(n2cnc3cc(Cl)c(Cl)cc32)C(O)C1O` (centres undefined), for the setting “dose: 64.0 mg/kg/injection, schedule: Q03HX024 (ip), vehicle: saline with Tween-80”, the T/C was 130 % of control (2×). Moreover, the survivor count was 0 of 6 and 3 of 6 (dose: 128.0 mg/kg/injection, schedule: Q03HX024 (ip), vehicle: saline with Tween-80); 0 of 6 (dose: 256.0 mg/kg/injection, schedule: Q03HX024 (ip), vehicle: saline with Tween-80); 0 of 6 (dose: 512.0 mg/kg/injection, schedule: Q03HX024 (ip), vehicle: saline with Tween-80); 0 of 10 (dose: 640.0 mg/kg/injection, schedule: Q04DX003 (ip), vehicle: other).
With `NC(N)=NCCCSC(=O)C1CCCCC1`, under setting [1], the survivor count is given as 0 of 5.
With `Cc1[nH]c2ccccc2c1CC[n+]1cccc(C#N)c1`, the survivor count (dose: 25.0 mg/kg/injection, schedule: Q01DX005 (ip), vehicle: Klucel (hydroxypropylcellulose) (HPC)) is given as 2 of 6; the survivor count under setting [2] is recorded as 0 of 6; the survivor count under setting [3] is 0 of 6; the survivor count under setting [4] is on record as 0 of 6.
On to `[CH3][Sn]([CH3])([n]1cnc(N)nc1=O)[n]1cnc(N)nc1=O`, for which, under setting [2], the T/C is 127 % of control [5 of 6 alive]. Besides, the survivor count was 1 of 6 under setting [3] and 0 of 6 under setting [4].
On to `CN(C)C1CS(=O)(=O)OC2=C1COCC2` (centres undefined), for which, under “dose: 240.0 mg/kg/injection, schedule: Q01DX005 (ip), vehicle: saline with Tween-80”, the survivor count is listed as 2 of 6.
With `CCN(CC)c1ccc(Pc2ccc(N(CC)CC)cc2)cc1`, the survivor count under setting [5] was 6 of 6.
`COc1cc(C2N3CCCN2CC3)cc(OC)c1OC` (centres undefined): the survivor count (dose: 400.0 mg/kg/injection, schedule: Q01DX009 (ip), vehicle: saline) is reported as 3 of 6.
As to `CN(C)C=Nc1cc(N)n(C#N)c(=S)n1`, the survivor count is listed as 4 of 6 (dose: 15.0 mg/kg/injection, schedule: Q01DX009 (ip), vehicle: saline with Tween-80); 0 of 6 (dose: 30.0 mg/kg/injection, schedule: Q01DX009 (ip), vehicle: saline with Tween-80); 0 of 6 (dose: 60.0 mg/kg/injection, schedule: Q01DX009 (ip), vehicle: saline with Tween-80).
On to `COc1cc(NCC(O)CN2C(C)CCCC2C)c2ncccc2c1` (centres undefined), for which the survivor count reads like this: (dose: 25.0 mg/kg/injection, schedule: Q01DX005 (ip), vehicle: saline) 4 of 5; (dose: 50.0 mg/kg/injection, schedule: Q01DX005 (ip), vehicle: saline) 0 of 5; (dose: 100.0 mg/kg/injection, schedule: Q01DX005 (ip), vehicle: saline) 0 of 5; under setting [6], 0 of 5.
Regarding `CC(NC(=O)OC(C)(C)C)C(=O)NC(C)C(=O)OCc1ccccc1` (centres undefined), the survivor count under setting [1] is reported as 4 of 5.
As for `CCN(CC)Cc1cc(C)c(O)c(N=Nc2ccc3ccc4cccc5ccc2c3c45)c1C`, the T/C under setting [7] is 125 % of control [5 of 6 alive].
Consider `COc1ccc2nccc(NCCCN3CCN(CCCNc4ccnc5ccc(OC)cc45)CC3)c2c1`, for which the survivor count was 0 of 6 and 4 of 6 (dose: 30.0 mg/kg/injection, schedule: Q01DX005 (ip), vehicle: water); 0 of 6 (dose: 60.0 mg/kg/injection, schedule: Q01DX005 (ip), vehicle: water); 1 of 6 (dose: 120.0 mg/kg/injection, schedule: Q01DX005 (ip), vehicle: water); 0 of 6 (dose: 240.0 mg/kg/injection, schedule: Q01DX005 (ip), vehicle: water).
With `O=C1OI(OI2OC(=O)c3ccccc32)c2ccccc21`, where the note is “dose: 120.0 mg/kg/injection, schedule: Q01DX005 (ip), vehicle: Klucel (hydroxypropylcellulose) (HPC)”, the T/C is 126 % of control [5 of 6 alive]. The survivor count (dose: 240.0 mg/kg/injection, schedule: Q01DX005 (ip), vehicle: Klucel (hydroxypropylcellulose) (HPC)) is reported as 0 of 6.
With `COC(=O)C1C2CC3c4[nH]c5c([N+](=O)[O-])c(OC)ccc5c4CCN3CC2CC(OC(=O)c2cc(OC)c(OC)c(OC)c2)C1OC` (centres undefined), the survivor count (dose: 150.0 mg/kg/injection, schedule: Q01DX005 (ip), vehicle: Klucel (hydroxypropylcellulose) (HPC)) is given as 6 of 6.
On to `CCCNC(=S)NN1C2CSC1CS2`, for which, under setting [8], the survivor count is given as 6 of 6.
`CSc1nc(Cl)cc(=O)n1C`: the survivor count runs as follows: under setting [2], 3 of 6; under setting [3], 2 of 6; under setting [4], 0 of 6.
For `CCN(CC)CCCC(C)Nc1c(C)cnc2cc(Cl)ccc12` (centres undefined), under setting [6], the survivor count is 0 of 5.
Regarding `CCOc1ccccc1N=Nc1c(C)nn(C(=S)SC)c1OCC`, the survivor count was 6 of 6 (dose: 120.0 mg/kg/injection, schedule: Q01DX005 (ip), vehicle: Klucel + Tween-80) and 6 of 6 (dose: 240.0 mg/kg/injection, schedule: Q01DX005 (ip), vehicle: Klucel + Tween-80).
With `CC(C)(C)c1cc2c(c(C(C)(C)OC(=O)c3ccccc3)c1)SOC2(C)C`, the survivor count under setting [4] is given as 6 of 6.
For `CCN(CC)CN1C(=O)C2C3C=CC(C2C1=O)C1C2C(=O)N(CN(CC)CC)C(=O)C2C31` (centres undefined), the T/C under setting [7] is 125 and 139 % of control.
Take `O=c1c2ccccc2cnn1CO`: where the note is “dose: 400.0 mg/kg/injection, schedule: Q04DX003 (ip), vehicle: saline”, the survivor count is recorded as 3 of 6.
As to `Cc1ccc(Oc2ccc(C(=O)C(CN(C)C)CN(C)C)cc2)cc1`, the survivor count reads like this: (dose: 15.0 mg/kg/injection, schedule: Q01DX005 (ip), vehicle: saline) 6 of 6; (dose: 30.0 mg/kg/injection, schedule: Q01DX005 (ip), vehicle: saline) 6 of 6; (dose: 60.0 mg/kg/injection, schedule: Q01DX005 (ip), vehicle: saline) 0 of 6; (dose: 120.0 mg/kg/injection, schedule: Q01DX005 (ip), vehicle: saline) 0 of 6; (dose: 240.0 mg/kg/injection, schedule: Q01DX005 (ip), vehicle: saline) 0 of 6.
Turning to `c1ccc(C(NC2CC3CCC2C3)c2ccccc2)cc1` (centres undefined), the survivor count (dose: 150.0 mg/kg/injection, schedule: Q01DX009 (ip), vehicle: saline with Tween-80) is reported as 2 of 6.
`CCC(/C=C/c1ccccc1)=N\NC(=O)c1ccc(C)cc1`: the survivor count was 6 of 6 (dose: 50.0 mg/kg/injection, schedule: Q01DX005 (ip), vehicle: saline with Tween-80); 6 of 6 (dose: 100.0 mg/kg/injection, schedule: Q01DX005 (ip), vehicle: saline with Tween-80); 6 of 6 under setting [1].
As for `C(C#CCN1CCOCC1)#CCN1CCOCC1`, the T/C (dose: 400.0 mg/kg/injection, schedule: Q01DX009 (ip), vehicle: Klucel (hydroxypropylcellulose) (HPC)) was 125 % of control.
In the case of `CCCCCCCCCCCCCCCC[N+](C)(C)CCNC(=O)c1ccccc1`, the survivor count reads like this: (dose: 25.0 mg/kg/injection, schedule: Q01DX009 (ip), vehicle: water) 1 of 6; (dose: 50.0 mg/kg/injection, schedule: Q01DX009 (ip), vehicle: water) 1 of 6.
On to `CC1CCC2C(C)C3C(CC4C5CC=C6CC(OC7OC(CO)C(O)C(OC8OC(CO)C(O)C(O)C8O)C7OC7OC(C)C(O)C(O)C7O)CCC6(C)C5CCC43C)N2C1` (centres undefined), for which the survivor count under setting [2] is listed as 0 of 5; the survivor count under setting [3] is reported as 0 of 5; the survivor count under setting [4] was 0 of 5; the survivor count (dose: 200.0 mg/kg/injection, schedule: Q04DX003 (ip), vehicle: suspension in saline) is 6 of 6.
`COC(=O)C1=C(/C=C/C(C)=O)NC(C)=C(C(=O)OC(C)C)C1c1ccccc1Cl` (centres undefined): the T/C under setting [4] was 134 % of control. Moreover, the survivor count (dose: 400.0 mg/kg/injection, schedule: Q01DX005 (ip), vehicle: Klucel (hydroxypropylcellulose) (HPC)) is on record as 1 of 6.
For `CN1CC=Nc2c1nc(N)[nH]c2=O`, under setting [7], the survivor count is 6 of 6.
In the case of `CCCCn1ccnc1C`, the survivor count by setting is: (dose: 50.0 mg/kg/injection, schedule: Q01DX009 (ip), vehicle: saline) 3 of 6; under setting [5], 0 of 6; under setting [8], 0 of 6.
